{
  "sequences": {"note": "Protein sequences, listed by entry. Tags and fused reporters are not part of them. Lines headed by an entry give the natural chain unless they say otherwise; changes in a name come on top.", "UniProt Q9UJA3": "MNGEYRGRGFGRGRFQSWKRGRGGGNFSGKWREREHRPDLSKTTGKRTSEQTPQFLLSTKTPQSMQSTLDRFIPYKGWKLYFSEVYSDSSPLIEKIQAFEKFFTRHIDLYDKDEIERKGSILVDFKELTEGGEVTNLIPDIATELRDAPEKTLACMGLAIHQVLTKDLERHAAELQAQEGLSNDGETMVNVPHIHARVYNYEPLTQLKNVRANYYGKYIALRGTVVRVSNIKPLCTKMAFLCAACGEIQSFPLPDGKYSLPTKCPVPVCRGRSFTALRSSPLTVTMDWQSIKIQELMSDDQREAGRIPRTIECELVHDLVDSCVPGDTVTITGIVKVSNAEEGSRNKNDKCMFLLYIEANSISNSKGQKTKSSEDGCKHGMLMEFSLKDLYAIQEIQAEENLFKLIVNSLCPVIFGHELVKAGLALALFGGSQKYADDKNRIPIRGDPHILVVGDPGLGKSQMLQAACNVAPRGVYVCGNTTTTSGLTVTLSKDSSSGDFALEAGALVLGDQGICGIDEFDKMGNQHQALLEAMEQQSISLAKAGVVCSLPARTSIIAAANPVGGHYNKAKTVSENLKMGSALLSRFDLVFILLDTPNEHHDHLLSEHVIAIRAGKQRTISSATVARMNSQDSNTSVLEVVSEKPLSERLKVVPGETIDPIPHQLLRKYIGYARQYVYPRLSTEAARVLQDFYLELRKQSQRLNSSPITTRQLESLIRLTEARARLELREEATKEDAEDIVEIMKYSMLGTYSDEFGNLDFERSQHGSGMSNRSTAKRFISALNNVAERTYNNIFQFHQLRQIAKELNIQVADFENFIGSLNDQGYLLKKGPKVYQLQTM", "UniProt Q9UHV9, whole entry": "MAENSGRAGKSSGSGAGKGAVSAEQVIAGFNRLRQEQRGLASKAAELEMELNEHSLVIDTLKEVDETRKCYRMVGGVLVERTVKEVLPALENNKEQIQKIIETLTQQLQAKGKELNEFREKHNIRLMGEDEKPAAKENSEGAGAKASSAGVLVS", "UniProt Q9UBT7": "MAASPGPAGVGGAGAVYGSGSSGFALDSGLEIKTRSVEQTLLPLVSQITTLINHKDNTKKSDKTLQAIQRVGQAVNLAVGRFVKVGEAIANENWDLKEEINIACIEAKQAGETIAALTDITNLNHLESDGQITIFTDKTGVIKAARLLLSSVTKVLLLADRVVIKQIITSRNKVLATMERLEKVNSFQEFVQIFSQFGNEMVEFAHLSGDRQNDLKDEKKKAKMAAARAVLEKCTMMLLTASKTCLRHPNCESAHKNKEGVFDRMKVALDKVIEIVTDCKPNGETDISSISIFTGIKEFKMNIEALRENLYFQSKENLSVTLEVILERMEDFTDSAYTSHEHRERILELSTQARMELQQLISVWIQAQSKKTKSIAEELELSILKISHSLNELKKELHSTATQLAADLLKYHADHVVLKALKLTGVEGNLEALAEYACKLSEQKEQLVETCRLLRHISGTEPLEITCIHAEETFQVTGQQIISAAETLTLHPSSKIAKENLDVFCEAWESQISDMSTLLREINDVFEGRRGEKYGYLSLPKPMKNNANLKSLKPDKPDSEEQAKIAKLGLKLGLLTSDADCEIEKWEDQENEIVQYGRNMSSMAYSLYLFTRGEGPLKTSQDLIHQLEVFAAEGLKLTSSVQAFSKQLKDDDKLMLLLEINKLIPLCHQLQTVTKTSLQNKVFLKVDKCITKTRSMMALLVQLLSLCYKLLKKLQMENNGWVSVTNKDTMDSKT", "UniProt Q9UIM3": "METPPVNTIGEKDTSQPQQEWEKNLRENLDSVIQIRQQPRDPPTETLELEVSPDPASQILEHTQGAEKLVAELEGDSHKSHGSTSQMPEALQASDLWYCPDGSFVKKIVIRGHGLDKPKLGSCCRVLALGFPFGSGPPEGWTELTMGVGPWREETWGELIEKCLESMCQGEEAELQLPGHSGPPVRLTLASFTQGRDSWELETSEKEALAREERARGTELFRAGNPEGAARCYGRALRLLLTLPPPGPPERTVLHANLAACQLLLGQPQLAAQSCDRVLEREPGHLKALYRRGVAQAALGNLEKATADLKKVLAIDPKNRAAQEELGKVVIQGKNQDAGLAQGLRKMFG", "UniProt Q9UIC8": "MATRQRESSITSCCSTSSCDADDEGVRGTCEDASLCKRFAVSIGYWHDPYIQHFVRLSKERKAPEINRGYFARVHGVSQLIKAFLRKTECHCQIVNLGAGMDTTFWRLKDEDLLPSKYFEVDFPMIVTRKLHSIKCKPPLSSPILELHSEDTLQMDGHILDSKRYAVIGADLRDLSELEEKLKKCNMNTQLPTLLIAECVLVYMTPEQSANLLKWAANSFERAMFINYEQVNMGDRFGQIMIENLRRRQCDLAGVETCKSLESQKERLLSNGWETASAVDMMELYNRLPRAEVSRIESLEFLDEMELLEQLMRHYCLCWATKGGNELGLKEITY", "UniProt Q9UHJ6": "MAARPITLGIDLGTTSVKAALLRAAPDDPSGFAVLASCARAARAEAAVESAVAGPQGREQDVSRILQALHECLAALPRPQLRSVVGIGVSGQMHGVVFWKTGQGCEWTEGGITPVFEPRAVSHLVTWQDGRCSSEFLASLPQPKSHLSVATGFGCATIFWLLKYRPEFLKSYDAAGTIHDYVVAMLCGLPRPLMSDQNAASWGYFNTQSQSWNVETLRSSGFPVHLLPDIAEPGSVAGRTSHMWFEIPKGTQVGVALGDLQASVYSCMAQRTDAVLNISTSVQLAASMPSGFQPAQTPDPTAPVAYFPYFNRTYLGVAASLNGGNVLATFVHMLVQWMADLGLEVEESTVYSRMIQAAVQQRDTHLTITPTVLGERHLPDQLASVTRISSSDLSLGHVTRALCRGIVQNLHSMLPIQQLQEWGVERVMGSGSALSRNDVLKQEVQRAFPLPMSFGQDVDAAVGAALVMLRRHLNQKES", "UniProt Q9UBK9, whole entry": "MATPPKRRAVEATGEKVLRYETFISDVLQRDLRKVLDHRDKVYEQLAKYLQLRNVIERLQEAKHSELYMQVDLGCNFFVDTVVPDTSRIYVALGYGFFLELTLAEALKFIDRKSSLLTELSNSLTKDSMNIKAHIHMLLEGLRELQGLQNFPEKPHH", "UniProt Q9UGC7": "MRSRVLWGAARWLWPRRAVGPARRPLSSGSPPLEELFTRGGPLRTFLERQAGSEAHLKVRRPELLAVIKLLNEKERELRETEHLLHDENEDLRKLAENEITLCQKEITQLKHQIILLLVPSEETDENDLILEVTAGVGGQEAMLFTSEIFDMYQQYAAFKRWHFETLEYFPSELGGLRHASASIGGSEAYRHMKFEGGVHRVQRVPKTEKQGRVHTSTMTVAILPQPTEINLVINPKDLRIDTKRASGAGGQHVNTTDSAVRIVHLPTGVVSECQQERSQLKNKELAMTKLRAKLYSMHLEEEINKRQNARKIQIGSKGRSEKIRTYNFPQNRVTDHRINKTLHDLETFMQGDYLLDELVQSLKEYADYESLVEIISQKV"},
  "source": "the supplement of paper PMC12819154",
  "about": "“High-throughput peptide-centric local stability assay extends protein–ligand identification to membrane proteins, tissues and bacteria” (Nature Structural & Molecular Biology, 2025)",
  "note": "Some of the results follow. Small differences around the control level are noise.",
  "data": [
    {"compound": "CN[C@@H]1C[C@H]2O[C@@](C)([C@@H]1OC)n1c3ccccc3c3c4c(c5c6ccccc6n2c5c31)C(=O)NC4 [staurosporine]", "experiment": "log2 fold change of tryptic peptide abundance, ligand vs vehicle (limited proteolysis) (log2 ratio); higher = more trypsin-susceptible (destabilized)", "conditions": "ligand concentration: 20 uM; sample: K562 cleared lysate; digestion: 4 min, 22 C (HT-PELSA RT4min, Orbitrap Astral)", "values": [
      {"target": "UniProt Q9UJA3 (peptide sequence: AGLALALFGGSQK, peptide start residue: 422)", "log2 fold change": 0.336},
      {"target": "PFDN2 (peptide sequence: LMGEDEKPAAKENSEGAGAK, peptide start residue: 126) (UniProt Q9UHV9)", "log2 fold change": -0.309},
      {"target": "CTNNAL1 (peptide sequence: YGYLSLPKPMK, peptide start residue: 534) (UniProt Q9UBT7)", "log2 fold change": 0.112},
      {"target": "FKBPL (peptide sequence: LTLASFTQGR, peptide start residue: 187) (UniProt Q9UIM3)", "log2 fold change": 0.261},
      {"target": "LCMT1 (peptide sequence: KTECHCQIVNLGAGMDTTFWR, peptide start residue: 87) (UniProt Q9UIC8)", "log2 fold change": -0.232},
      {"target": "SHPK (peptide sequence: DTHLTITPTVLGER, peptide start residue: 363) (UniProt Q9UHJ6)", "log2 fold change": 0.288},
      {"target": "UXT (peptide sequence: VLRYETFISDVLQR, peptide start residue: 17) (UniProt Q9UBK9)", "log2 fold change": 0.31},
      {"target": "MTRF1L (peptide sequence: VRRPELLAVIK, peptide start residue: 59) (UniProt Q9UGC7)", "log2 fold change": 0.304}
    ]}
  ]
}
